Measurements taken from PubChem BioAssay AID328 (DTP/NCI, 2004).
The list shows only some results of the screen, not a fair sample: it gathers tests that were run many times, whatever their T/C, doses with no T/C, and many T/C values between a quarter and a half above the control. Further doses and runs are listed elsewhere. T/C gives the treated animals as a percentage of the vehicle group. Some entries give survivors of the animals treated and no T/C: the source files T/C as zero there, which appears to mark a toxic dose or a test without result, not a measured value. Some survivor counts are full or nearly so, which does not show that the dose was tolerated: survival well below the control is almost never listed, so the zero probably covers shortened survival too. Survivors were counted at the toxicity check, usually on the fifth day, unless a day is given; later deaths do not show. Schedule codes are those of the source, read here as Q, the interval in days (D) or hours (H), X, the number of doses. Where survival is the endpoint, the PubChem record calls one and a half times the control and up active, and a quarter to a half above the control has no call in these data; cut-offs in other NCI protocols can differ. Some entries were tested several times; their values stand side by side, smallest first. Some T/C values carry the count of animals alive at the toxicity check (mostly the fifth day); where none is given, no animal had died by that day.

Tested on: BDF1 mice, P388 leukemia ip, median survival T/C
Assay: NCI In Vivo Anticancer Drug Screen. Data for tumor model P388 Leukemia (intraperitoneal) in B6D2F1 (BDF1) mice
Conditions: T/C endpoint: median survival time, higher T/C = longer survival
Outline: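 Reported as T/C, where T is the survival measurement in dosed animals and C the same measurement in vehicle controls.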

[1] = dose: 5.0 mg/kg/injection, schedule: Q01DX009 (ip), vehicle: Klucel (hydroxypropylcellulose) (HPC)
[2] = dose: 400.0 mg/kg/injection, schedule: Q04DX003 (ip), vehicle: saline with Tween-80
[3] = dose: 50.0 mg/kg/injection, schedule: Q01DX009 (ip), vehicle: saline with Tween-80
[4] = dose: 100.0 mg/kg/injection, schedule: Q01DX009 (ip), vehicle: saline with Tween-80
[5] = dose: 200.0 mg/kg/injection, schedule: Q01DX009 (ip), vehicle: saline with Tween-80
[6] = dose: 400.0 mg/kg/injection, schedule: Q01DX009 (ip), vehicle: saline with Tween-80
[7] = dose: 400.0 mg/kg/injection, schedule: Q01DX009 (ip), vehicle: saline
[8] = dose: 50.0 mg/kg/injection, schedule: Q01DX005 (ip), vehicle: saline with Tween-80
[9] = dose: 200.0 mg/kg/injection, schedule: Q01DX009 (ip), vehicle: other
[10] = dose: 100.0 mg/kg/injection, schedule: Q04DX003 (ip), vehicle: saline

For `COC(=O)c1c(C)cc(OC(=O)c2c(C)c(Cl)c(O)c(Cl)c2O)cc1O`, the survivor count (dose: 1.25 mg/kg/injection, schedule: Q01DX009 (ip), vehicle: Klucel (hydroxypropylcellulose) (HPC)) was 6 of 6, the survivor count (dose: 2.5 mg/kg/injection, schedule: Q01DX009 (ip), vehicle: Klucel (hydroxypropylcellulose) (HPC)) was 6 of 6 and the T/C [1] was 126 % of control. For the same compound, the survivor count [1] was 6 of 6.

`CN(C)CCCNc1c2ccccc2nc2cccc([N+](=O)[O-])c12` was tested, and the T/C (dose: 0.3 mg/kg/injection, schedule: Q04DX003 (ip), vehicle: saline) was 140 % of control.

In the case of `COc1cccc(/C=N/NC(=O)C2CCN(C(=S)NC3CC4C=CC3C4)CC2)c1O` (stereo not given), the survivor count (dose: 3.12 mg/kg/injection, schedule: Q01DX009 (ip), vehicle: saline with Tween-80) is reported as 5 of 6 and the survivor count (dose: 12.5 mg/kg/injection, schedule: Q01DX009 (ip), vehicle: saline with Tween-80) is reported as 6 of 6.

With `NC1(C(=O)O)CCCc2ccc(N(CCCl)CCCl)cc21` (stereo not given) the survivor count (dose: 37.5 mg/kg/injection, schedule: Q04DX003 (ip), vehicle: saline with Tween-80) was 6 of 6, the survivor count (dose: 100.0 mg/kg/injection, schedule: Q04DX003 (ip), vehicle: saline with Tween-80) was 4 of 6 and the survivor count (dose: 200.0 mg/kg/injection, schedule: Q04DX003 (ip), vehicle: saline with Tween-80) was 5 of 6. For the same compound, the survivor count [2] was 1 of 6.

In the case of `OCC1C=CCC1` (stereo not given), the survivor count [3] is reported as 3 of 6, the survivor count [4] is reported as 0 of 6 and the survivor count [5] is reported as 0 of 6.

For `Ic1ccccc1C[N+]12CN3CN(CN(C3)C1)C2`, the T/C (dose: 132.0 mg/kg/injection, schedule: Q01DX009 (ip), vehicle: saline with Tween-80) was 130 [5 of 6 alive] and 138 % of control, the survivor count (dose: 175.0 mg/kg/injection, schedule: Q01DX009 (ip), vehicle: saline with Tween-80) was 0 of 6 and the T/C [5] was 123, 133, 140, 142 % of control. For the same compound, the T/C (dose: 200.0 mg/kg/injection, schedule: Q01DX009 (ip), vehicle: saline) was 145 % of control, the T/C (dose: 265.0 mg/kg/injection, schedule: Q01DX009 (ip), vehicle: saline with Tween-80) was 131 % of control [5 of 6 alive] and the T/C (dose: 300.0 mg/kg/injection, schedule: Q01DX009 (ip), vehicle: saline with Tween-80) was 138 % of control [5 of 6 alive]. The survivor count (dose: 400.0 mg/kg/injection, schedule: Q01DX009 (ip), vehicle: alcohol) was 0 of 6, the survivor count [6] was 0 of 6 and the T/C [7] was 130 % of control [4 of 6 alive]. For the same compound, the survivor count (dose: 600.0 mg/kg/injection, schedule: Q01DX009 (ip), vehicle: saline with Tween-80) was 0 of 6.

With `CC(=O)CC(=O)C(F)(F)F.CC(=O)CC(=O)C(F)(F)F.[O]=[V]` the survivor count (dose: 15.0 mg/kg/injection, schedule: Q01DX009 (ip), vehicle: Klucel (hydroxypropylcellulose) (HPC)) was 1 of 6 and the survivor count (dose: 30.0 mg/kg/injection, schedule: Q01DX009 (ip), vehicle: Klucel (hydroxypropylcellulose) (HPC)) was 2 of 6.

With `CC(=O)C(C(C)=O)C(C(C)=O)C(C)=O.[Cu]` the survivor count [8] was 1 of 5, the survivor count (dose: 100.0 mg/kg/injection, schedule: Q01DX005 (ip), vehicle: saline with Tween-80) was 0 of 5 and the survivor count (dose: 200.0 mg/kg/injection, schedule: Q01DX005 (ip), vehicle: saline with Tween-80) was 0 of 5.

`Cc1ccc([P+](CCN2C(=O)c3ccccc3C2=O)(c2ccc(C)cc2)c2ccc(C)cc2)cc1` was tested, and the T/C (dose: 0.78 mg/kg/injection, schedule: Q01DX009 (ip), vehicle: water) was 125 % of control, the T/C (dose: 1.56 mg/kg/injection, schedule: Q01DX009 (ip), vehicle: water) was 129 % of control and the T/C (dose: 3.13 mg/kg/injection, schedule: Q01DX009 (ip), vehicle: water) was 134 % of control. For the same compound, the T/C (dose: 6.25 mg/kg/injection, schedule: Q01DX009 (ip), vehicle: water) was 134 % of control, the survivor count (dose: 12.5 mg/kg/injection, schedule: Q01DX009 (ip), vehicle: water) was 0 of 6 and the survivor count (dose: 25.0 mg/kg/injection, schedule: Q01DX009 (ip), vehicle: water) was 0 of 6.

With `CCCC(O)Cc1c[nH]c(=O)[nH]c1=O` (stereo not given) the survivor count [3] was 5 of 6, the survivor count [4] was 4 of 6 and the survivor count [5] was 2 of 6.

With `ICCCCCCCCCC[n+]1ccc2ccccc2c1` the T/C (dose: 6.25 mg/kg/injection, schedule: Q01DX005 (ip), vehicle: saline with Tween-80) was 127 % of control and the T/C [8] was 135 % of control.

`COc1cc2ccc(CC3NCCc4cc5c(cc43)OCO5)cc2cc1OC` (stereo not given) was tested, and the survivor count [9] was 4 of 6 and the survivor count (dose: 400.0 mg/kg/injection, schedule: Q04DX003 (ip), vehicle: other) was 6 of 6.

With `CCOC(=O)C(Cc1ccccc1Cl)(NC(C)=O)C(=O)OCC` the T/C [5] was 136 % of control.

In the case of `C#CCOCC(CCl)OC(N)=O` (stereo not given), the survivor count [6] is reported as 0 of 6 and the T/C (dose: 400.0 mg/kg/injection, schedule: Q04DX003 (ip), vehicle: saline) is reported as 140 % of control [6 of 7 alive].

For `O=C(O)CSC(CC(=O)O)C(F)(F)C(F)(F)C(F)(F)F` (stereo not given), the T/C [10] was 133 % of control, the T/C (dose: 200.0 mg/kg/injection, schedule: Q04DX003 (ip), vehicle: saline) was 127 % of control and the survivor count [7] was 1 of 6.

For `CC(=O)c1ccc2ccccc2c1OC(=O)c1cccnc1`, the T/C (dose: 25.0 mg/kg/injection, schedule: Q01DX009 (ip), vehicle: other) was 127 % of control and the survivor count (dose: 400.0 mg/kg/injection, schedule: Q01DX009 (ip), vehicle: other) was 5 of 6.

`O=C1C(NCC(O)CO)=C(N2CC2)C(=O)C(NCC(O)CO)=C1N1CC1` (stereo not given) was tested, and the T/C (dose: 0.5 mg/kg/injection, schedule: Q01DX009 (ip), vehicle: saline) was 140 % of control, the T/C (dose: 3.0 mg/kg/injection, schedule: Q01DX009 (ip), vehicle: saline) was 129 % of control and the survivor count (dose: 4.0 mg/kg/injection, schedule: Q01DX009 (ip), vehicle: saline) was 4 of 6.

In the case of `COC(=O)C(CSCSC)NC(=O)/C=C/c1ccccc1Cl` (stereo not given), the survivor count [2] is reported as 6 of 6.

`NNC1=NCCS1` was tested, and the survivor count (dose: 2.5 mg/kg/injection, schedule: Q01DX009 (ip), vehicle: saline with Tween-80) was 1 of 6, the survivor count (dose: 5.0 mg/kg/injection, schedule: Q01DX009 (ip), vehicle: saline with Tween-80) was 0 of 6 and the survivor count (dose: 10.0 mg/kg/injection, schedule: Q01DX009 (ip), vehicle: saline with Tween-80) was 0 of 6.

In the case of `CCCCCCCCCCCCCCCCS(=O)CC(O)COC(=O)c1ccc(C(=O)OCC(O)CS(=O)CCCCCCCCCCCCCCCC)cc1` (stereo not given), the T/C (dose: 50.0 mg/kg/injection, schedule: Q01DX009 (ip), vehicle: other) is reported as 125 % of control, the T/C (dose: 100.0 mg/kg/injection, schedule: Q01DX009 (ip), vehicle: other) is reported as 130 % of control and the T/C [9] is reported as 145 % of control.

`Cn1c([N+](=O)[O-])cnc1CSC(=S)N1CCN(C(=S)SCc2ncc([N+](=O)[O-])n2C)CC1` was tested, and the T/C [5] was 125 % of control [4 of 5 alive].

In the case of `CCCCOc1ccc(C(=O)N/N=C(\C)[C@]2(O)Cc3c(O)c4c(c(O)c3[C@@H](OC3CC(N)C(O)C(C)O3)C2)C(=O)c2c(OC)cccc2C4=O)cc1` (stereo not given in full), the T/C (dose: 1.0 mg/kg/injection, schedule: Q01DX009 (ip), vehicle: water) is reported as 125 % of control and the T/C (dose: 4.0 mg/kg/injection, schedule: Q01DX009 (ip), vehicle: water) is reported as 147 % of control.

In the case of `CC1(C)N=C(N)N=C(N)N1c1ccc(CCC(=O)Nc2ccc(S(=O)(=O)F)cc2)c(Cl)c1`, the survivor count [4] is reported as 6 of 6, the survivor count [5] is reported as 5 of 6 and the survivor count [6] is reported as 0 of 6.

With `CSCC(N)CO` (stereo not given) the T/C [10] was 138 % of control.

With `CNc1ccccc1C#N` the survivor count (dose: 200.0 mg/kg/injection, schedule: Q04DX003 (ip), vehicle: Klucel (hydroxypropylcellulose) (HPC)) was 5 of 6 and the survivor count (dose: 400.0 mg/kg/injection, schedule: Q01DX009 (ip), vehicle: Klucel (hydroxypropylcellulose) (HPC)) was 6 of 6.

With `COC(=O)C1=C(\N2CCOCC2)CCCCC/C=C\1C(=O)OC` the T/C [4] was 127 % of control.
